Measured values published in paper PMC8478917.
These are yes or no findings as the source states them, for the method shown. Binding seen in cells or lysates may run through a third protein. Some results given as binding are weak or reduced against the parent protein; the word gives no strength.

Amino acid sequences for entries named in this document (tags omitted).
UniProt Q5SYE7: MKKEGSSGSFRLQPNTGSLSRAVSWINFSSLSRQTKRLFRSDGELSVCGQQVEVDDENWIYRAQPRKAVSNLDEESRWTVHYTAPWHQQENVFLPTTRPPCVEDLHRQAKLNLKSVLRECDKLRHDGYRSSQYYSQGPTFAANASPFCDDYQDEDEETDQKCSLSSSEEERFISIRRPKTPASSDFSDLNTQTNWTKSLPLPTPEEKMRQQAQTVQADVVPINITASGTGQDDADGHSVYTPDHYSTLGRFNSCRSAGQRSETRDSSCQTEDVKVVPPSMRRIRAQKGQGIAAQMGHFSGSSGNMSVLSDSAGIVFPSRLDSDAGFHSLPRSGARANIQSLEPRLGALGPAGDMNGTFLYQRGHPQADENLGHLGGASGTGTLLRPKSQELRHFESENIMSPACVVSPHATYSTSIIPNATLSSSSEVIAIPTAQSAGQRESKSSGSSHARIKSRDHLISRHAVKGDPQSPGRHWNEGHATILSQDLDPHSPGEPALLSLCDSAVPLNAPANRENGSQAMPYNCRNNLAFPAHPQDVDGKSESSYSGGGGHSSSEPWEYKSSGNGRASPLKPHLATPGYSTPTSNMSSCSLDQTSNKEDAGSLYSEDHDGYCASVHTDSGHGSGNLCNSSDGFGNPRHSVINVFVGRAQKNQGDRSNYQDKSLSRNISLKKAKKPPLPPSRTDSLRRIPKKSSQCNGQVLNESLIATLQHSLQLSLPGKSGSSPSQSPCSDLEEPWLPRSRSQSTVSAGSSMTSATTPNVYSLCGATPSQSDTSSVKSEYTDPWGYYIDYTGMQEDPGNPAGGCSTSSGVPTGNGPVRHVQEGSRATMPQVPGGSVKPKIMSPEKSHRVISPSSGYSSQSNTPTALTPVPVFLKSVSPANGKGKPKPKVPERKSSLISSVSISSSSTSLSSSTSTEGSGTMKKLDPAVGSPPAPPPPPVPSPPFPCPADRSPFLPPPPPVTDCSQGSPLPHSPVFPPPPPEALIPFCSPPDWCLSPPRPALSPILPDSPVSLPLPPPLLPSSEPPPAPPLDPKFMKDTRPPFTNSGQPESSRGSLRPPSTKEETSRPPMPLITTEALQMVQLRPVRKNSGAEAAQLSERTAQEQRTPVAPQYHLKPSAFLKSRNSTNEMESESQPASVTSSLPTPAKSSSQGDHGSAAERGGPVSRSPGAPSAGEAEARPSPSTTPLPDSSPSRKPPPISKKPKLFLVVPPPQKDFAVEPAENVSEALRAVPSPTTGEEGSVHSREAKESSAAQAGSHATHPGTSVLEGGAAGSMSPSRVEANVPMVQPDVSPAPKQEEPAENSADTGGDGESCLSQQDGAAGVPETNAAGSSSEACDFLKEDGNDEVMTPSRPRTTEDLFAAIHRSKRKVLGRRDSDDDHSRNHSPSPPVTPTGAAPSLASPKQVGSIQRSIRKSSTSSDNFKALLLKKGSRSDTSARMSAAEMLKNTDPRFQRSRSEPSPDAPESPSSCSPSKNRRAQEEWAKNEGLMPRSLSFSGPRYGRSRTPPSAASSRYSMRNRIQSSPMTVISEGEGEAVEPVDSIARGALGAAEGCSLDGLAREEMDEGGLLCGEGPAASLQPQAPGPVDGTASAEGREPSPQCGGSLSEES
UniProt Q8IZP0: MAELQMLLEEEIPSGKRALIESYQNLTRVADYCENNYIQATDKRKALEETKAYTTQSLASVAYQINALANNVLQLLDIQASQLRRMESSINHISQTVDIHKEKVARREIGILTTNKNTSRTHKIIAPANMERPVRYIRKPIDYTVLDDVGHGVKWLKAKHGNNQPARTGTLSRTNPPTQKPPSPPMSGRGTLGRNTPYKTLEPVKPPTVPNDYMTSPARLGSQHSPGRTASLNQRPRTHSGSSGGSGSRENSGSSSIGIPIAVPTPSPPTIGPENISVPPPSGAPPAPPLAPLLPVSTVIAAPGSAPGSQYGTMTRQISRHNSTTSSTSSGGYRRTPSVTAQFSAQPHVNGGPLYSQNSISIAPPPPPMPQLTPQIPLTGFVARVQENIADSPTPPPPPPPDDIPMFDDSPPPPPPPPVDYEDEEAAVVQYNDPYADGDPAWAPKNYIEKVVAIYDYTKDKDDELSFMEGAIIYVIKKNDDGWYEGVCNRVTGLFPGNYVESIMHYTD

Molecular target: endogenous NHSL1 of MCF10A cells (human (endogenous in MCF10A)) (UniProt Q5SYE7)
Assay: co-IP; endogenous NHSL1 immunoprecipitated with polyclonal antibody 4457 from MCF10A (Abi1 blot) and B16-F1 (Scar/WAVE2 blot) lysates; non-immune rabbit IgG as control

For “endogenous Abi1 of MCF10A cells (from UniProt Q8IZP0 1-508)”, the binding was “binds”.
